Measured values published in patent US20180236053A1.
These are yes or no findings as the source states them, for the method shown. Some binding calls cover weakened binding; strength is not graded here.

Sequences of proteins named here, by UniProt entry; tags and fusion partners are left off. Residues count along the entry.
UniProt P28907, residues 43-300: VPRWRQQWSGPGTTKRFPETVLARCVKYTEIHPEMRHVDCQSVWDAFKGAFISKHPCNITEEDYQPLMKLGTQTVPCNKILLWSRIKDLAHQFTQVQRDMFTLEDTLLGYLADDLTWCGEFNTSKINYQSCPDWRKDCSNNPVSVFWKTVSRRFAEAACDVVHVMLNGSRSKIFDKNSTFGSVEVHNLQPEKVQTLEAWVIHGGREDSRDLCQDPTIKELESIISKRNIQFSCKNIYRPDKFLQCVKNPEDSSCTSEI

B1: 28F5-V1 CAR (protein)
chain: QIQLVQSGPELKKPGETVKISCKASGYTFTKYGMNWVKQTPGKGLKWMGWINTNSGEPTYAEEFKGRFAFSLETSASTAYLQINNLKNEDTATYFCARGAYYRYDGEVSYYAMDYWGQGTSVTVSSGGGGSGGGGSGGGGSQIILTQSPAIMSASLGERVTMTCTATSSLSSSYLHWYQQKPGSSPKLWIYSTSHLASGVPARFSGGGSGTSYSLTISSMEAEDAATYYCHQYHLSPYTFGGGTKLEIKGLAVSTISSFFPPGYQIYIWAPLAGTCGVLLLSLVITLYCKRGRKKLLYIFKQPFMRPVQTTQEEDGCSCRFPEEEEGGCELRVKFSRSADAPAYQQGQNQLYNELNLGRREEYDVLDKRRGRDPEMGGKPRRKNPQEGLYNELQKDKMAEAYSEIGMKGERRRGKGHDGLYQGLSTATKDTYDALHMQALPPR
B2: 13F11-V1 CAR (protein)
chain: QIQLVQSGPELKKPGETVKISCKASGYTFKKYGMNWVKQAPGKGLKWMGWINTNTGEPTYAEEFKGRFAFSLETSASTAYLQINNLKNEDTATYFCARWYYGSTPSSYTMDYWGQGTSVTVSSGGGGSGGGGSGGGGSETTVTQSPASLSVATGEKVTIRCITSTDIDDDMNWYQQKPGEPPKVLISEGNTLRPGVPSRFSSSGYGTDFVFTIENTLSEDVADYYCLQSNNMPYTFGGGTKLEIKGLAVSTISSFFPPGYQIYIWAPLAGTCGVLLLSLVITLYCKRGRKKLLYIFKQPFMRPVQTTQEEDGCSCRFPEEEEGGCELRVKFSRSADAPAYQQGQNQLYNELNLGRREEYDVLDKRRGRDPEMGGKPRRKNPQEGLYNELQKDKMAEAYSEIGMKGERRRGKGHDGLYQGLSTATKDTYDALHMQALPPR
B3: 16B5-V1 CAR (protein)
chain: QAYLQQSGAELVRSGASVKMSCKASGYTFTSYNLHWVKQTPGQGLEWIGYIYPGNGGTNYNQKFKGKATLTADTSSSTAYMQISSLTSEDSAVYFCARGGIYYYGSSLDYWGQGTTLTVSSGGGGSGGGGSGGGGSNIVLTQSPASLAVSLGQRATISCRASESVDNYGTTFMYWYQQKPGQPPKLLIYLASNLESGVPARFSGSGSGTDFTLTIDPVEADDAATYYCQQNKEDPWTFGGGTKLEIKGLAVSTISSFFPPGYQIYIWAPLAGTCGVLLLSLVITLYCKRGRKKLLYIFKQPFMRPVQTTQEEDGCSCRFPEEEEGGCELRVKFSRSADAPAYQQGQNQLYNELNLGRREEYDVLDKRRGRDPEMGGKPRRKNPQEGLYNELQKDKMAEAYSEIGMKGERRRGKGHDGLYQGLSTATKDTYDALHMQALPPR
B4: 25A10-V1 CAR (protein)
chain: EVQLQQSGAELVRPGASVKLSCTASGFNIKDSLIHWVKQRPEQGLEWIGWIDPEDDKTKYAPKFQDKATLTADTSSNTAYLQLSTLTSEDTAIYYCVSRYINYYFAYWGQGTTLTVSSGGGGSGGGGSGGGGSDIVMTQSPSSLTVTAGEKVTMSCKSSQSLLHSGNQRNYLTWYQQKPGQPPKLLIYWASTRESGVPDRFTGSGSGTDFTLTISSVQAEDLAVYYCQNDYDYPYTFGGGTKLEIKGLAVSTISSFFPPGYQIYIWAPLAGTCGVLLLSLVITLYCKRGRKKLLYIFKQPFMRPVQTTQEEDGCSCRFPEEEEGGCELRVKFSRSADAPAYQQGQNQLYNELNLGRREEYDVLDKRRGRDPEMGGKPRRKNPQEGLYNELQKDKMAEAYSEIGMKGERRRGKGHDGLYQGLSTATKDTYDALHMQALPPR

Target: CD38-Fc protein (produced by LakePharma) (UniProt P28907)
Experiment: flow cytometry, CD38-Fc fusion protein staining of purified CD38-deficient T cells transfected with CAR mRNA (FIG. 15)

Row | Binder | binding
1 | B1 | binds
2 | B2 | binds
3 | B3 | binds
4 | B4 | binds
